Source: publication doi:10.1101/233213
Positions count from the first letter of the chain named. Results are given in words; binding and its absence hold for the method and conditions named. Binding seen in cells or lysates may run through a third protein. Some results given as binding are weak or reduced against the parent protein; the word gives no strength. Where a sequence is shown, tags or fusion partners need not be part of it.

Columns and labels:
GlyT2-4KR (rat) = target: T1, GlyT2-4KR (rat) (UniProt P58295); assay: co-IP
T1 sequence: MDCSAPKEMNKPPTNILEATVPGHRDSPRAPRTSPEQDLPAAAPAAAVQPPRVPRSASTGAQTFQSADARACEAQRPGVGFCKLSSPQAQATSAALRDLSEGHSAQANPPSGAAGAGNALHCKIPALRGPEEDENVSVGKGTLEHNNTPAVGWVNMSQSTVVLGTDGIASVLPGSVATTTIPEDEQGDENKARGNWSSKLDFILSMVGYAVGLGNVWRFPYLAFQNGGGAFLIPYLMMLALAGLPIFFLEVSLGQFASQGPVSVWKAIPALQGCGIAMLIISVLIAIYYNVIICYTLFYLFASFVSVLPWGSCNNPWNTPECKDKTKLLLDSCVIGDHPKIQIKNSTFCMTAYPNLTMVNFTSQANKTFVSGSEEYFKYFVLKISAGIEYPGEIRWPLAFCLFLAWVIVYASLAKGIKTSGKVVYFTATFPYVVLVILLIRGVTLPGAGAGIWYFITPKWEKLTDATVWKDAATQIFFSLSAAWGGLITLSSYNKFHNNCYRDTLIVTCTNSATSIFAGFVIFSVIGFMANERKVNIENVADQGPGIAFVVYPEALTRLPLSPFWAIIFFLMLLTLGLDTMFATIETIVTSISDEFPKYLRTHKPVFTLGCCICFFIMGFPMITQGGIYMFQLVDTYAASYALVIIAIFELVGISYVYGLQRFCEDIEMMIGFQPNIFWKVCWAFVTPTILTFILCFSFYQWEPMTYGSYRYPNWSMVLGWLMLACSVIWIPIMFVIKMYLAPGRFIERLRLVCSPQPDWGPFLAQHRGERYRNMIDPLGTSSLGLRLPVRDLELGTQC

[1] = target: T2, GlyT2 (neuronal glycine transporter 2), wild type (rat) (UniProt P58295); assay: co-IP
T2 sequence: T1 sequence with R751K, R773K, R787K, R791K

GlyT2-Δ8cter (rat) = target: T3, GlyT2-Δ8cter (rat) (UniProt P58295); assay: co-IP
T3 sequence: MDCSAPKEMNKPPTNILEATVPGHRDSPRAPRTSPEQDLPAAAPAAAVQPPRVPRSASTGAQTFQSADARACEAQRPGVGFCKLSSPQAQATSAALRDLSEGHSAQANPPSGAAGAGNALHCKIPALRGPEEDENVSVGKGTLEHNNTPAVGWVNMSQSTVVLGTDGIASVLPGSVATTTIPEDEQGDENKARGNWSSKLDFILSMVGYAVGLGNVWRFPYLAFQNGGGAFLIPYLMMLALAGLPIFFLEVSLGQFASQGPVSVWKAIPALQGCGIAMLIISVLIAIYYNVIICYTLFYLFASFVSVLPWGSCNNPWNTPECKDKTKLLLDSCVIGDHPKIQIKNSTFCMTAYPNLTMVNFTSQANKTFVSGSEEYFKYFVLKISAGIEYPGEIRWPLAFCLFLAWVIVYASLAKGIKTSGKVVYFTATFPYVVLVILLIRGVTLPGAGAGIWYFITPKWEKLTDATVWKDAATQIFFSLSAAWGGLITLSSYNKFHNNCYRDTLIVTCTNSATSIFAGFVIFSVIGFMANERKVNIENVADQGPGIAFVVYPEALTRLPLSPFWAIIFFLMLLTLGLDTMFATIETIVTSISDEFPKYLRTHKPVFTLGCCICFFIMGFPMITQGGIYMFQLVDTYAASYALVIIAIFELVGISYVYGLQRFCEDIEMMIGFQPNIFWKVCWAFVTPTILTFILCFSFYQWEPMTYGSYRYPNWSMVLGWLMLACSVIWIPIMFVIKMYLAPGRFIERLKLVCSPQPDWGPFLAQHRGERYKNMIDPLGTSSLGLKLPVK

[2] = target: T4, GST fused to the C-terminus of GlyT2 (rat) (UniProt P58295); assay: pull-down
T4 sequence: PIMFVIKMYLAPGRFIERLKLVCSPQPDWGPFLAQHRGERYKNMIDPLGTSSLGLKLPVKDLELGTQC

Measured: binding

B1: FLAG-tagged p80-LNX1 (Ligand of Numb protein X1, isoform p80) (enzyme, UniProt O70263 1-728)
chain: MNQPDLADDPDPSPEPLCIVCGQNHSPEENHFYTYTEDVDDDLICHICLQALLDPLDTPCGHTYCTLCLTNFLVEKDFCPVDRKPVVLQHCKKSSILVNKLLNKLLVTCPFTEHCTEVLQRCDLQHHFQTSCKGASHYGLTKDRKRRSQDGCPDGCASLMATTLSPEVSAAATISLMTDEPGLDNPAYVSSVEDGEPVANSSDSGRSNRTRARPFERSTMRSRSFKKINRALSALRRTKSGSVVANHVDQGRDNSENTTVPEVFPRLFHLIPDGEITSIKINRADPSESLSIRLVGGSETPLVHIIIQHIYRDGVIARDGRLLPGDIILKVNGMDISNVPHNYAVRLLRQPCQVLRLTVLREQKFRSRSNAHVPDSYGPRDDSFHVILNKSSPEEQLGIKLVRRVDEPGVFIFNVLNGGVADRHGQLEENDRVLAINGHDLRFGSPESAAHLIQASERRVHLVVSRQVRQSSPDIFQEAGWISNGQQSPGPGERNTASKPAATCHEKVVSVWKDPSESLGMTVGGGASHREWDLPIYVISVEPGGVISRDGRIKTGDILLNVNGIELTEVSRTEAVAILKSAPSSVVLKALEVKEQEAQEDCSPAALDSNHNVTPPGDWSPSWVMWLELPQYLCNCKDVILRRNTAGSLGFCIVGGYEEYSGNKPFFIKSIVEGTPAYNDGRIRCGDILLAVNGRSTSGMIHACLARMLKELKGRITLTIASWPGTFL
binds: all assays above
